Reference: PMC5571533
The exact form of at least one protein or probe is not confirmed. Results from cells or extracts need not show a direct contact. For part of these data: A negative result means that nothing was seen under these conditions. Protein sequences can lack the tags named with them.

Columns and labels:
[1] = biological target: T1, HNF3β (hepatocyte nuclear factor 3-beta) (human (HepG2 cells)) (UniProt Q9Y261); assay: EMSA supershift; settings: anti-HNF3β 4 ug, HepG2 nuclear extract; 20 ug HepG2 nuclear extract, 0.5 ug poly(dI-dC) (0.8 ug in supershift), 13.8 nM probe, 18 ul, 25 C 20 min, 6% native PAGE; salt and pH not stated (Viagene kit); protein in an extract; label: 5' biotin on both strands
T1 sequence (looked up, limits assumed): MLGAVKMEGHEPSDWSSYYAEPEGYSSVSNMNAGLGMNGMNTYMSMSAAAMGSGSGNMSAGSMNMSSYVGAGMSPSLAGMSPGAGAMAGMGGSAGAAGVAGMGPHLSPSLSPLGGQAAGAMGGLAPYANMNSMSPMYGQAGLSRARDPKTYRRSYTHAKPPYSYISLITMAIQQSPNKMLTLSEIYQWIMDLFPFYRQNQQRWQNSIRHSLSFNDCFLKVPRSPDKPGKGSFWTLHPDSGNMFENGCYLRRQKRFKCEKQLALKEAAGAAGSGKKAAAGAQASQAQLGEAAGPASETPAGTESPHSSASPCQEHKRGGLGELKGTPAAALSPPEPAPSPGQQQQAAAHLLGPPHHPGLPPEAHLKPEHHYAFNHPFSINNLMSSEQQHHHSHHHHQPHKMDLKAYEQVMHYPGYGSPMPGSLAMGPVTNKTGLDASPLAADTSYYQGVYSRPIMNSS

[2] = biological target: T1, HNF3β (hepatocyte nuclear factor 3-beta) (human (HepG2 cells)); assay: competition EMSA; settings: 50- and 100-fold molar excess cold probe diminished the band; 20 ug HepG2 nuclear extract, 0.5 ug poly(dI-dC) (0.8 ug in supershift), 13.8 nM probe, 18 ul, 25 C 20 min, 6% native PAGE; salt and pH not stated (Viagene kit); protein in an extract
[3] = biological target: T1, HNF3β (hepatocyte nuclear factor 3-beta) (human (HepG2 cells)); assay: competition with a labelled probe; settings: cold mutated probe (50- to 100-fold excess) did not diminish the band; 20 ug HepG2 nuclear extract, 0.5 ug poly(dI-dC) (0.8 ug in supershift), 13.8 nM probe, 18 ul, 25 C 20 min, 6% native PAGE; salt and pH not stated (Viagene kit); protein in an extract

“CTTTTAAAATAGTTGCTTTCTTAGG (double strand) [CPS1 promoter HNF3β site 2 probe]”: binds [1].

“CTTTTAAAATAGTTGCTTTCTTAGG (double strand) [cold wild-type CPS1 probe]”: binds [2].

“CTTTTAAGGTATCCGCCCTCTTAGG (double strand) [HNF3βmut cold probe]”: no binding [3].
